Measurements published in US20230039401A1, “COMPOSITIONS AND METHODS FOR TREATING NRP2-ASSOCIATED DISEASES” (aTyr Pharma, Inc., priority 2018, published 2023).
No constants are given. Whether binding was seen depends on the method and setting. Some entries that bind do so weakly or less than the wild type. Tags and fused reporters may be left off the sequences shown.

Assays:
[1] = target: Fc-HRS(2-60); experiment: SPR, Fc-HRS(2-60) immobilised, 50 nM mouse NRP2 as analyte
[2] = target: T1, endogenous soluble NRP2 in human serum (human) (UniProt O60462); experiment: HRS:NRP2 complex ELISA (MSD) on human serum, capture with NRP2 antibody, detection with HRS C-terminal antibody
T1 sequence (looked up): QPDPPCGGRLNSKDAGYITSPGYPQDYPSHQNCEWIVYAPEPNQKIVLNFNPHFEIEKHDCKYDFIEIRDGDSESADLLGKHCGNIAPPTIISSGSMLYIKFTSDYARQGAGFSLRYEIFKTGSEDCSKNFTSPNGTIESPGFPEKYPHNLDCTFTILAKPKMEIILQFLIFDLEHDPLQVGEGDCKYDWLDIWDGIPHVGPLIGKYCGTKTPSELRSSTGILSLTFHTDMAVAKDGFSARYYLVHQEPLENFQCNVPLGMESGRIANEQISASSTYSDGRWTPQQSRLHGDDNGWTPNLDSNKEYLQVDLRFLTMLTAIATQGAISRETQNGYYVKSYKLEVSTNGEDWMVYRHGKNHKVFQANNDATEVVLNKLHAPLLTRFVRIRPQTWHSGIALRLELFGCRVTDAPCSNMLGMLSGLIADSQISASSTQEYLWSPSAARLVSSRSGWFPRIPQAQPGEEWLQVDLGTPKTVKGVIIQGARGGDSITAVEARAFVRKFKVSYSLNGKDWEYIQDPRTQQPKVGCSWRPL

[3] = target: T1, endogenous soluble NRP2 in human serum (human); experiment: complex ELISA on human serum, NRP2 capture antibody, HARS_NT detection antibody
[4] = target: T1, endogenous soluble NRP2 in human serum (human); experiment: HRS:NRP2 complex ELISA (MSD) on human serum, capture with NRP2 monoclonal antibody, detection with HRS N-terminal antibody (HARS_NT)
[5] = target: T1, endogenous soluble NRP2 in human serum (human); experiment: sandwich complex ELISA on human serum, several antibody pairings
[6] = target: T1, endogenous soluble NRP2 in human serum (human); experiment: HRS:NRP2 complex ELISA (MSD) on human serum, capture with NRP2 antibody, detection with HRS N-terminal antibody
[7] = target: T1, endogenous soluble NRP2 in human serum (human); experiment: HRS:NRP2 complex ELISA (MSD) on human serum, capture with HRS N-terminal antibody, detection with NRP2 antibody
[8] = target: T1, endogenous soluble NRP2 in human serum (human); experiment: HRS:NRP2 complex ELISA (MSD) on human serum, capture with HRS C-terminal antibody, detection with NRP2 antibody
[9] = target: T1, endogenous soluble NRP2 in human serum (human); experiment: complex ELISA on human serum, NRP2 capture antibody, HRS N-terminal detection antibody
[10] = target: T1, endogenous soluble NRP2 in human serum (human); experiment: sandwich complex ELISA on human serum: capture of HRS and detection of NRP2, and the reverse
[11] = target: NRP2-Fc (R&D Systems #2215-N2) (human) (UniProt O60462); experiment: SPR
[12] = target: NRP2-Fc (R&D Systems #2215-N2) (human) (UniProt O60462); experiment: SPR (column: Binding to NRP2 observed by SPR)

Measured: binding

B1: Mouse NRP2-Fc (R&D Systems #7988-N2) (Fc fusion, UniProt O35375 23-864, looked up, not shown: a dimerising Fc or GST)
chain: QQDPPCGGRLNSKDAGYITSPGYPQDYPSHQNCEWIVYAPEPNQKIVLNFNPHFEIEKHDCKYDFIEIRDGDSESADLLGKHCGNIAPPTIISSGSVLYIKFTSDYARQGAGFSLRYEIFKTGSEDCSKNFTSPNGTIESPGFPEKYPHNLDCTFTILAKPRMEIILQFLTFDLEHDPLQVGEGDCKYDWLDIWDGIPHVGPLIGKYCGTKTPSKLRSSTGILSLTFHTDMAVAKDGFSARYYLIHQEPPENFQCNVPLGMESGRIANEQISASSTFSDGRWTPQQSRLHGDDNGWTPNLDSNKEYLQVDLRFLTMLTAIATQGAISRETQKGYYVKSYKLEVSTNGEDWMVYRHGKNHKIFQANNDATEVVLNKLHMPLLTRFIRIRPQTWHLGIALRLELFGCRVTDAPCSNMLGMLSGLIADTQISASSTREYLWSPSAARLVSSRSGWFPRNPQAQPGEEWLQVDLGTPKTVKGVIIQGARGGDSITAVEARAFVRKFKVSYSLNGKDWEYIQDPRTQQTKLFEGNMHYDTPDIRRFDPVPAQYVRVYPERWSPAGIGMRLEVLGCDWTDSKPTVETLGPTVKSEETTTPYPMDEDATECGENCSFEDDKDLQLPSGFNCNFDFPEETCGWVYDHAKWLRSTWISSANPNDRTFPDDKNFLKLQSDGRREGQYGRLISPPVHLPRSPVCMEFQYQAMGGHGVALQVVREASQESKLLWVIREDQGSEWKHGRIILPSYDMEYQIVFEGVIGKGRSGEISIDDIRISTDVPLENCMEPISAFAGEDFKVDIPETHGGEGYEDEIDDEYEGDWSNSSSSTSGAGDPSSGKEKSWLYTLDP
binds: [1]

B2: endogenous circulating human HRS (histidyl-tRNA synthetase) in serum (enzyme)
chain: AERAALEELVKLQGERVRGLKQQKASAELIEEEVAKLLKLKAQLGPDESKQKFVLKTPKGTRDYSPRQMAVREKVFDVIIRCFKRHGAEVIDTPVFELKETLMGKYGEDSKLIYDLKDQGGELLSLRYDLTVPFARYLAMNKLTNIKRYHIAKVYRRDNPAMTRGRYREFYQCDFDIAGNFDPMIPDAECLKIMCEILSSLQIGDFLVKVNDRRILDGMFAICGVSDSKFRTICSSVDKLDKVSWEEVKNEMVGEKGLAPEVADRIGDYVQQHGGVSLVEQLLQDPKLSQNKQALEGLGDLKLLFEYLTLFGIDDKISFDLSLARGLDYYTGVIYEAVLLQTPAQAGEEPLGVGSVAAGGRYDGLVGMFDPKGRKVPCVGLSIGVERIFSIVEQRLEALEEKIRTTETQVLVASAQKKLLEERLKLVSELWDAGIKAELLYKKNPKLLNQLQYCEEAGIPLVAIIGEQELKDGVIKLRSVTSREEVDVRREDLVEEIKRRTGQPLCIC
not listed: [1] | [11] | [12]
binds: all other assays above

B3: SEMA3C-Fc (R&D Systems #5570-S3) (Fc fusion, human, UniProt Q99985 21-738, looked up, not shown: a dimerising Fc or GST)
chain: GSSQPQARVYLTFDELRETKTSEYFSLSHHPLDYRILLMDEDQDRIYVGSKDHILSLNINNISQEALSVFWPASTIKVEECKMAGKDPTHGCGNFVRVIQTFNRTHLYVCGSGAFSPVCTYLNRGRRSEDQVFMIDSKCESGKGRCSFNPNVNTVSVMINEELFSGMYIDFMGTDAAIFRSLTKRNAVRTDQHNSKWLSEPMFVDAHVIPDGTDPNDAKVYFFFKEKLTDNNRSTKQIHSMIARICPNDTGGLRSLVNKWTTFLKARLVCSVTDEDGPETHFDELEDVFLLETDNPRTTLVYGIFTTSSSVFKGSAVCVYHLSDIQTVFNGPFAHKEGPNHQLISYQGRIPYPRPGTCPGGAFTPNMRTTKEFPDDVVTFIRNHPLMYNSIYPIHKRPLIVRIGTDYKYTKIAVDRVNAADGRYHVLFLGTDRGTVQKVVVLPTNNSVSGELILEELEVFKNHAPITTMKISSKKQQLYVSSNEGVSQVSLHRCHIYGTACADCCLARDPYCAWDGHSCSRFYPTGKRRSRRQDVRHGNPLTQCRGFNLKAYRNAAEIVQYGVKNNTTFLECAPKSPQASIKWLLQKDKDRRKEVKLNERIIATSQGLLIRSVQGSDQGLYHCIATENSFKQTIAKINFKVLDSEMVAVVTDKWSPWTWASSVRALPFHPKDIMGAFSHSEMQMINQYCKDTRQQHQQGDESQKMRGDYGKLKALINS
binds: [11] | [12]

B4: Mouse SEMA3F-Fc (R&D Systems #3237-S3) (Fc fusion, UniProt O88632 19-785, looked up, not shown: a dimerising Fc or GST)
chain: ATPIQDQLPATPRVRLSFKELKATGTAHFFNFLLNTTDYRILLKDEDHDRMYVGSKDYVLSLDLHDINREPLIIHWAASPQRIEECILSGKDGNGECGNFVRLIQPWNRTHLYVCGTGAYNPMCTYVNRGRRAQALPWTQMQVVRGRGSRATDGADRPTPTAPRQDYIFYLEPEKLESGKGKCPYDPKLDTASALINEELYAGVYIDFMGTDAAIFRTLGKQTAMRTDQYNSRWLNDPSFIHAELIPDSAERNDDKLYFFFRERSAEAPQNPAVYARIGRICLNDDGGHCCLVNKWSTFLKARLVCSVPGEDGIETHFDELQDVFVQQTQDVRNPVIYAVFTSSGSVFRGSAVCVYSMADIRMVFNGPFAHKEGPNYQWMPFSGKMPYPRPGTCPGGTFTPSMKSTKDYPDEVINFMRTHPLMYQAVYPLQRRPLVVRTGAPYRLTTVAVDQVDAADGRYEVLFLGTDRGTVQKVIVLPKDDQEVEELMLEEVEVFKEPAPVKTMTISSKRQQLYVASAVGVTHLSLHRCQAYGAACADCCLARDPYCAWDGQACSRYTASSKRRSRRQDVRHGNPIRQCRGFNSNANKNAVESVQYGVAGSAAFLECQPRSPQATVKWLFQRDPSDRRREIRAEDRFLRTEQGLLLRALQLGDRGLYSCTATENNFKHIVTRVQLHVLGRDAVHAALFPPLAVSVPPPPGTGPPTPPYQELAQLLAQPEVGLIHQYCQGYWRHVPPRPREAPGALRPPELQDQKKPRNRRHHPPDT
binds: [11] | [12]
